The text below walks through data of the M2OR odorant receptor database.

The list shows a part of the results, in another mix than the full data. The calls were merged from several studies; some rest on single wells. The list shows a part of the results.

What all share (conditions): stereoisomer not certain
One test addresses T1, OR51I1 (Homo sapiens) (UniProt Q9H343).
T1 sequence (whole entry): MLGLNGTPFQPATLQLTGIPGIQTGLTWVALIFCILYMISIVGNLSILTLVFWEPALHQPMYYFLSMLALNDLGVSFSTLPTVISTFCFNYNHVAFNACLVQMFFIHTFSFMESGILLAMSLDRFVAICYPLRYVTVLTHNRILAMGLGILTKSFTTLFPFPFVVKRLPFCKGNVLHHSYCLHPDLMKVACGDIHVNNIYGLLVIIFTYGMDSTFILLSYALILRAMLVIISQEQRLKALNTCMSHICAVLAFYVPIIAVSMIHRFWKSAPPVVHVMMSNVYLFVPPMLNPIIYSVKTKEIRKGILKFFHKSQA
The procedure, abridged: (§1)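 Each entry records the cell line, G-protein, co-transfected protein and tags used. Methods varied with the source, often transient luciferase assays in mammalian cell lines. A receptor–molecule pair is called responsive (active) if the original authors judged its signal statistically different from baseline and non-responsive (inactive) otherwise.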

A further test addresses T2, OR51I2 (Homo sapiens) (UniProt Q9H344).
T2 sequence (whole entry): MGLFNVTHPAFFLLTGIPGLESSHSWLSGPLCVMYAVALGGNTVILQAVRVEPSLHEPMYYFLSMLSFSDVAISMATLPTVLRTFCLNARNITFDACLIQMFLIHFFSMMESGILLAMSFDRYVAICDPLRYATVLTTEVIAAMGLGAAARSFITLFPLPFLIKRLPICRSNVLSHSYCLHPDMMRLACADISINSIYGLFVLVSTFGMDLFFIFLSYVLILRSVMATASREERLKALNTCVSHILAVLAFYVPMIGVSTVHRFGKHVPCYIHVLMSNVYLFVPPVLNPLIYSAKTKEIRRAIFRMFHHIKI
The procedure, abridged:
as §1

The target in another test is T3, OR51L1 (Homo sapiens) (UniProt Q8NGJ5).
T3 sequence (whole entry): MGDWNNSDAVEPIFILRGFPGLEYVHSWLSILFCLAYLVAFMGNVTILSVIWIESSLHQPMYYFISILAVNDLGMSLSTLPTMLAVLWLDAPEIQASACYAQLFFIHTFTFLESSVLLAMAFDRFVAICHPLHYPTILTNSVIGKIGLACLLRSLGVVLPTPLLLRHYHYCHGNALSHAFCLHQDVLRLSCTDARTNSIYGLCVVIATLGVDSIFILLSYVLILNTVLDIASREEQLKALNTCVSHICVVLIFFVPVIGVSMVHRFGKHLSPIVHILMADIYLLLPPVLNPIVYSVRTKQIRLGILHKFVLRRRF
In a few lines:
as §1

For a further test, the target named is T4, OR51S1 (Homo sapiens) (UniProt Q8NGJ8).
T4 sequence (whole entry): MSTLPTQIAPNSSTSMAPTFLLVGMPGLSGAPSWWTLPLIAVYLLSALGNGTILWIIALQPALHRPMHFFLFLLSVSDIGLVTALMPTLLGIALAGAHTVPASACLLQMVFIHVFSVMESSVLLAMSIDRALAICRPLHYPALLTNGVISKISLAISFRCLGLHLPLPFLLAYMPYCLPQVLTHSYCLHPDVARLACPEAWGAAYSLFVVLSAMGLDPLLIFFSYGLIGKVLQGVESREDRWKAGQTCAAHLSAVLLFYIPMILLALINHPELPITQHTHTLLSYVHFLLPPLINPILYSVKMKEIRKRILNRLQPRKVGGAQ
In a few lines:
as §1

The target of another test is T5, OR52A4P (Homo sapiens) (UniProt A6NMU1).
T5 sequence (whole entry): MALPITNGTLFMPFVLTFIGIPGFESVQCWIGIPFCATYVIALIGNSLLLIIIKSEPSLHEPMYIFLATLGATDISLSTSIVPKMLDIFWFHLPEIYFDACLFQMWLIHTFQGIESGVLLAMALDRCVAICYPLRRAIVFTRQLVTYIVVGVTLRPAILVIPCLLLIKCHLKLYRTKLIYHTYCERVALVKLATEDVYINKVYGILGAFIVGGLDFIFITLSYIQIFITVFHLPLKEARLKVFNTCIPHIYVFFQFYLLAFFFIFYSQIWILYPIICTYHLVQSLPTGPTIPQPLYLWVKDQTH
The procedure, abridged: as §1

Another test concerns the target T6, OR52A5 (Homo sapiens) (UniProt Q9H2C5).
T6 sequence (whole entry): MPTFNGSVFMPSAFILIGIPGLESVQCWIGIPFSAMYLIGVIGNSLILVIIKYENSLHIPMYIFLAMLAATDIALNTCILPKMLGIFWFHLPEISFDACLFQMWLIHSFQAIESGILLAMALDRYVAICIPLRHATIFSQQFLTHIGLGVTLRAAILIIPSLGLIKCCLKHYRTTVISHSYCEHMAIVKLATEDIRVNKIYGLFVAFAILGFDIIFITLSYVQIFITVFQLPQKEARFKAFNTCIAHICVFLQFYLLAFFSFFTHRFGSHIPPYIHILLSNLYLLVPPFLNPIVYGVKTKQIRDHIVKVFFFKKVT
The procedure, abridged: as §1

The target of another test is T7, OR52B4 (Homo sapiens) (UniProt Q8NGK2).
T7 sequence (whole entry): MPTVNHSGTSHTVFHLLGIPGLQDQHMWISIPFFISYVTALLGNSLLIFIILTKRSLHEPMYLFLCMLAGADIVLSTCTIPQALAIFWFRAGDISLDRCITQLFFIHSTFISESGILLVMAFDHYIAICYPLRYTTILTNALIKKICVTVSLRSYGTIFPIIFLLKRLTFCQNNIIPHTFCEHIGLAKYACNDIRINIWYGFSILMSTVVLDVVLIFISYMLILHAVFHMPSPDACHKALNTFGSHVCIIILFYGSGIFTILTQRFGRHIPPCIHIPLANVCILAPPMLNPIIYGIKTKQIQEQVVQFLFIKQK
The procedure, abridged: as §1

The next test deals with T8, OR52D1 (Homo sapiens) (UniProt Q9H346).
T8 sequence (whole entry): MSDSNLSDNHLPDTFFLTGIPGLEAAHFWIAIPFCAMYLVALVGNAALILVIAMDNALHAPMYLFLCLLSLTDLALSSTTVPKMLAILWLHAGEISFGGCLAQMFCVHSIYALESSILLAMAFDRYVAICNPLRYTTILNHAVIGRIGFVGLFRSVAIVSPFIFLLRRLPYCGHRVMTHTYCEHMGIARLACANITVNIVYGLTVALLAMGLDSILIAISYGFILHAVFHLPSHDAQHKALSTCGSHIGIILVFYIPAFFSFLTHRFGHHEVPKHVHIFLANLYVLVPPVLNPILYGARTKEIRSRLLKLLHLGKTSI
The procedure, abridged:
as §1

As for `COC(=O)c1ccccc1O`, the “odorant receptor agonist call” value with OR51I1 (Homo sapiens), with OR51I2 (Homo sapiens), with OR51L1 (Homo sapiens), with OR51S1 (Homo sapiens), with OR52A4P (Homo sapiens) and with OR52A5 (Homo sapiens) was “inactive” throughout. Also, the “odorant receptor agonist call” value with OR52B4 (Homo sapiens) and with OR52D1 (Homo sapiens) was “inactive” in each case.

For `CC1COCc2cc3c(cc21)C(C)(C)C(C)C3(C)C` (stereo not drawn), the “odorant receptor agonist call” value with OR51I1 (Homo sapiens), with OR51L1 (Homo sapiens), with OR51S1 (Homo sapiens), in the test with OR52A5 (Homo sapiens) and with OR52B4 (Homo sapiens) was “active” each time. Moreover, the “odorant receptor agonist call” value with OR51I2 (Homo sapiens), with OR52A4P (Homo sapiens) and with OR52D1 (Homo sapiens) was “inactive” in each case.

For the molecule `CC1=NC(C)SC1C` (stereo not drawn), the “odorant receptor agonist call” value with OR51I2 (Homo sapiens), with OR51L1 (Homo sapiens), in the test with OR52B4 (Homo sapiens) and with OR52D1 (Homo sapiens) was “inactive” throughout.

In the case of `COc1ccccc1O`, the “odorant receptor agonist call” value with OR51I1 (Homo sapiens), in the test with OR51I2 (Homo sapiens), with OR51L1 (Homo sapiens), with OR51S1 (Homo sapiens), in the test with OR52A4P (Homo sapiens) and with OR52A5 (Homo sapiens) was “inactive” throughout. For the same molecule, the “odorant receptor agonist call” value with OR52B4 (Homo sapiens) and in the test with OR52D1 (Homo sapiens) was “inactive” throughout.
